# Hit rate of the full screen: of about 59,000 compounds, about 35 (0.06%) were called active. The shares of active, inactive and inconclusive entries below differ from those in the screen. Cut-off read from the data, not from the text of the source: active = max dye-equivalent concentration above about 10 nM; inconclusive = between about 1.1 nM and that limit; inactive = weaker than that.
# Experiment: qHTS Assay for Spectroscopic Profiling in Texas Red Spectral Region
# Conditions: Compound fluorescence, Texas Red channel, 547/618 nm; active compounds read high
# Method in brief: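 Texas Red-region profiling: compounds in 100 mM Tris pH 8.0 were read at 547/618 nm after 15 min at room temperature. Intensities were normalized against a six-point Texas Red standard series to give dye-equivalent concentration.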
row,Structure (SMILES),max dye-equivalent concentration
1,Cc1ccccc1N(CC(=O)NCc1ccncc1)S(C)(=O)=O,inconclusive: 1.1 nM
2,CCC(=O)Nc1nnc(SCC(=O)Nc2ccc(F)cc2)s1,inconclusive: 1.5 nM
3,CCOC(=O)CSc1nc2cc(OCC)ccc2cc1C#N,inconclusive: 1.3 nM
4,CCOc1nc(-c2ccc(C)cc2)ccc1-c1noc(-c2cccnc2)n1,inconclusive: 2.2 nM
5,COc1ccc(NC(=O)N(CCN2CCCC2)Cc2cc3cc(OC)c(OC)cc3[nH]c2=O)cc1,inconclusive: 1.4 nM
6,Cc1ccc(S(=O)(=O)NC(=O)NCc2ccccn2)cc1,inconclusive: 1.4 nM
7,Cc1cc(C)c(S(N)(=O)=O)c(C)c1-n1cnnn1,inconclusive: 1.3 nM
8,O=C(CCc1ccccc1)Nc1nc2ccc(S(=O)(=O)N3CCOCC3)cc2s1,inconclusive: 1.2 nM
9,COc1ccc(NC(C)=O)cc1NC(C)C(=O)Nc1ccccc1F (centres undefined),inconclusive: 1.2 nM
10,CCC(C)n1cnc2c(c1=O)c1nc3ccccc3nc1n2Cc1ccc2c(c1)OCO2 (centres undefined),inconclusive: 1.1 nM
11,O=C(O)c1ccccc1C(=O)N1CCN(c2ccccc2)CC1,inconclusive: 1.7 nM
12,O=C1CNCCCN2CCN(CCCNCC(=O)Nc3ccc(cc3)S(=O)(=O)c3ccc(cc3)NC(=O)CNCCCN3CCN(CCCNCC(=O)Nc4ccc(cc4)S(=O)(=O)c4ccc(cc4)N1)CC3)CC2,inactive
13,CCOc1ccc(S(=O)(=O)Nc2ccc(Cl)cn2)c(C)c1C,inconclusive: 1.3 nM
14,CCn1nc(CC(=O)Nc2ccc(-n3cnnn3)c(C)c2)c2ccccc2c1=O,inconclusive: 1.2 nM
15,N#Cc1nc(-c2ccc(Cl)cc2)oc1NCCc1ccccn1,inconclusive: 1.5 nM
16,O=c1c(-c2ccc(F)cc2)nc2cnc(N3CCOCC3)nc2n1Cc1ccc(F)cc1,inactive
17,CC1=C(C(=O)Nc2ccccn2)C(c2ccc(F)cc2)n2ncnc2N1 (centres undefined),inconclusive: 1.7 nM
18,N/C(=N\O)c1cn([C@@H]2O[C@@H](CO)[C@H](O)[C@@H]2O)c2ncnc(NO)c12,inactive
19,Cc1nc(N=Nc2ccc(S(=O)(=O)O)cc2S(=O)(=O)O)c(COP(=O)(O)O)c(C=O)c1O,inconclusive: 1.4 nM
20,CC1(C)CCC(=O)N[C@H]1CC(=O)C[C@H]1NC(=O)CCC1(C)C,inconclusive: 1.7 nM
21,CCOC(=O)CNc1nc(C(C)(C)C)nc2c1nnn2Cc1ccccc1Cl,inconclusive: 1.1 nM
22,CCCCOc1ccc(CC(=O)NO)cc1,inconclusive: 1.2 nM
23,c1ccc(-n2cccc2CNC2CCCCC2)cc1,inconclusive: 2.3 nM
24,O=c1c2[nH]c3ccc(F)cc3c2ncn1CCN1CCOCC1,inconclusive: 2.4 nM
25,CC(=O)NCCc1cc2ccc(C)cc2[nH]c1=O,inconclusive: 1.1 nM
26,COc1cc(OC)cc(C(=O)N2CCN(c3ccccc3F)CC2)c1,inconclusive: 1.4 nM
27,O=C(O)c1cc(=O)c2c(OCC(O)COc3cccc4oc(C(=O)O)cc(=O)c34)cccc2o1,inconclusive: 1.5 nM

# Structural class: the entries above with a cyano group.
row,Structure (SMILES),max dye-equivalent concentration
3,CCOC(=O)CSc1nc2cc(OCC)ccc2cc1C#N,inconclusive: 1.3 nM
15,N#Cc1nc(-c2ccc(Cl)cc2)oc1NCCc1ccccn1,inconclusive: 1.5 nM

# Next results follow:

row,Structure (SMILES),max dye-equivalent concentration
1,COCCNc1ccnc(-c2ccccc2CN(C)C)n1,inactive
2,O=C(CCSc1nc2cc(Cl)ccc2o1)N1CCOCC1,inconclusive: 1.2 nM
3,CCN(CC(=O)Nc1ccc(S(N)(=O)=O)cc1)S(=O)(=O)c1cc(C)ccc1OC,inconclusive: 1.2 nM
4,Cc1[nH]n2c(=O)c3c(nc2c1-c1ccccc1)CCC3,inconclusive: 2.2 nM
5,Cc1cc(NCCCN2CCOCC2)n2ncc(-c3ccccc3)c2n1,inconclusive: 1.1 nM
6,COc1cccc(Cn2c(=O)c(-c3cccc(F)c3)nc3cncnc32)c1,inactive
7,C=CCSc1nnc(NC(=O)c2cccc(S(=O)(=O)N3CCOCC3)c2)s1,inconclusive: 1.5 nM
8,CCn1c2ccccc2c2cc(C3N=C(N)Nc4nc5ccccc5n43)ccc21 (centres undefined),inconclusive: 3 nM
9,Cc1c(CC(C)(C)C(=O)O)n(Cc2ccc(Cl)cc2)c2ccc(F)cc12,inconclusive: 1.3 nM
10,CCOCCCNC(=O)C1CCC(=O)N1CCc1ccccc1 (centres undefined),inconclusive: 2 nM
11,Cc1noc(/C=C/c2ccco2)c1S(=O)(=O)N1CCC(C(=O)N2CCc3ccccc3C2)CC1,inconclusive: 1.2 nM
12,Cc1cc(OCC(=O)NCCN2CCOCC2)ccc1Br,inactive
13,CC(C)Oc1ccc(NC(N)=O)cc1,inconclusive: 1.3 nM
14,COc1ccc(C2=C(O)C(C)N(c3ccccc3)C2=N)cc1OC (centres undefined),inconclusive: 2.5 nM
15,Cc1ccc(-n2nc3c(c2NC(=O)c2ccc4c(c2)OCO4)CSC3)c(C)c1,inconclusive: 1.3 nM
16,CCC(c1nnnn1Cc1ccco1)N(Cc1cc2cc(OC)ccc2[nH]c1=O)C1CCCCC1 (centres undefined),inconclusive: 1.9 nM
17,COc1ccc(/C=C\C(=O)Nc2ccccc2C(=O)O)cc1OC,inactive
18,COc1ccc(OC)c(C(C(=O)NCc2ccco2)N(C(=O)Cn2nnc3ccccc32)C2CC2)c1 (centres undefined),inconclusive: 1.9 nM
19,COC(=O)[C@H]1[C@@H]2C[C@H]3c4[nH]c5ccccc5c4CCN3C[C@@H]2CC[C@@H]1O,inactive
20,Cc1ccc(-c2nnn(CC(=O)N(c3ccccc3F)C(C(=O)NC3CCCC3)c3ccco3)n2)o1 (centres undefined),inconclusive: 1.4 nM
21,CCc1cc2c3c(c(=O)oc2cc1OC)CCCC3,inconclusive: 1.1 nM
22,CC(C)NC(=O)C1CCCN(S(C)(=O)=O)C1 (centres undefined),inconclusive: 1.3 nM
23,O=C(Nc1cccc2cccnc12)c1ccc(Br)o1,inconclusive: 1.2 nM
24,Cn1c(=N)c(S(=O)(=O)c2ccc(F)cc2)cc2c(=O)n3ccccc3nc21,inconclusive: 1.3 nM
25,N#Cc1cccc(NC(=O)N2CC3(CCN(C(=O)c4cc(C(F)(F)F)cc(C(F)(F)F)c4)CC3)C2)c1,inactive
26,CC1(C)Cc2c(sc3nc4n(c(=O)c23)CCC4)CO1,inconclusive: 1.5 nM
27,CCOC(=O)CSc1nc(C)c(C(=O)OCC)s1,inconclusive: 2.1 nM
